B1: YWHAG (protein, UniProt P61983 1-247)
chain: MVDREQLVQKARLAEQAERYDDMAAAMKNVTELNEPLSNEERNLLSVAYKNVVGARRSSWRVISSIEQKTSADGNEKKIEMVRAYREKIEKELEAVCQDVLSLLDNYLIKNCSETQYESKVFYLKMKGDYYRYLAEVATGEKRATVVESSEKAYSEAHEISKEHMQPTHPIRLGLALNYSVFYYEIQNAPEQACHLAKTAFDDAIAELDTLNEDSYKDSTLIMQLLRDNLTLWTSDQQDDDGGEGNN
B2: αB-crystallin (CryAB), endogenous in neonatal rat ventricular cardiomyocytes (protein, UniProt P23928 1-175)
chain: MDIAIHHPWIRRPFFPFHSPSRLFDQFFGEHLLESDLFSTATSLSPFYLRPPSFLRAPSWIDTGLSEMRMEKDRFSVNLDVKHFSPEELKVKVLGDVIEVHGKHEERQDEHGFISREFHRKYRIPADVDPLTITSSLSSDGVLTVNGPRKQASGPERTIPITREEKPAVTAAPKK
B3: CryAB^WT-tGFP (protein, UniProt P02511 1-175)
chain: MDIAIHHPWIRRPFFPFHSPSRLFDQFFGEHLLESDLFPTSTSLSPFYLRPPSFLRAPSWFDTGLSEMRLEKDRFSVNLDVKHFSPEELKVKVLGDVIEVHGKHEERQDEHGFISREFHRKYRIPADVDPLTITSSLSSDGVLTVNGPRKQVSGPERTIPITREEKPAVTAAPKK
B4: CryAB^R120G-tGFP (protein, UniProt P02511 1-175)
chain: MDIAIHHPWIRRPFFPFHSPSRLFDQFFGEHLLESDLFPTSTSLSPFYLRPPSFLRAPSWFDTGLSEMRLEKDRFSVNLDVKHFSPEELKVKVLGDVIEVHGKHEERQDEHGFISREFHGKYRIPADVDPLTITSSLSSDGVLTVNGPRKQVSGPERTIPITREEKPAVTAAPKK
B5: PFKL (protein, UniProt P30835 1-780)
chain: MATVDLEKLRMSGAGKAIGVLTSGGDAQGMNAAVRAVTRMGIYVGAKVFLIYEGYEGLVEGGENIKPANWLSVSNIIQLGGTIIGSARCKAFTTREGRLAAAYNLLQHGITNLCVIGGDGSLTGANIFRNEWGSLLEELVKEGKISESTAQNYAHLSIAGLVGSIDNDFCGTDMTIGTDSALHRIMEVIDAITTTAQSHQRTFVLEVMGRHCGYLALVSALASGADWLFIPEAPPEDGWENFMCERLGETRSRGSRLNIIIIAEGAIDRHGKPISSSYVKDLVVQRLGFDTRVTVLGHVQRGGTPSAFDRVLSSKMGMEAVMALLEATPDTPACVVSLSGNQSVRLPLMECVQVTKDVQKAMDEKRFDEAIQLRGRSFENNWKIYKLLAHQKVSKEKSNFSLAILNVGAPAAGMNAAVRSAVRTGISEGHTVYVVHDGFEGLAKGQVQEVGWHDVAGWLGRGGSMLGTKRTLPKPHLEAIVENLRTYNIHALLVIGGFEAYEGVLQLVEARGRYEELCIVMCVIPATISNNVPGTDFSLGSDTAVNAAMESCDRIKQSASGTKRRVFIVETMGGYCGYLATVTGIAVGADAAYVFEDPFNIHDLKANVEHMTEKMKTDIQRGLVLRNEKCHEHYTTEFLYNLYSSEGRGVFDCRTNVLGHLQQGGAPTPFDRNYGTKLGVKAMLWMSEKLRDVYRKGRVFANAPDSACVIGLRKKVVAFSSVTELKKETDFEHRMPREQWWLNLRLMLKMLAHYRISMADYVSGELEHVTRRTLSIDKGF
B6: UQCRQ (protein, UniProt Q7TQ16 1-82)
chain: MGREFGNLTRIRHVISYSLSPFEQRAFPHYFSKGIPNVLRRTRERILRVAPPFVLFYLIYTWGNQEFAQSKRKNPAKYENDK

Results are given in words; binding and its absence hold for the method and conditions named. In cells and extracts the contact can be indirect. A yes stands for co-enrichment or nearness to the bait. Other partners may have been found. No binding means not detected with the bait. Sequences can lack the tags named with a protein.

The experiment has as its target myeloid leukaemia factor 2 (MLF2), endogenous in neonatal rat ventricular cardiomyocytes (rat (endogenous in NRVCM)). Description: affinity purification with mass spectrometry; co-IP of MLF2 from NRVCM lysates (RIPA buffer with 1% SDS, 250 µg protein) with MLF2 antibody (B-6) on Dynabeads Protein G, uncoupled beads as negative control, five washes, LC-MS/MS; four conditions: native cells, lacZ, CryAB^WT-tGFP and CryAB^R120G-tGFP overexpression; n = 4 per condition.
Turning to B1, the binding entry is recorded as “binds”. In the case of B2, the binding entry was “binds”. The entry for B3 is “binds”; for B4 it is “no binding”. On to B5, for which the binding result is “binds”. Turning to B6, the binding entry was “binds”.

Values taken from publication PMC12841798.
